This is an account of results in the supplement of paper PMC12819154, “High-throughput peptide-centric local stability assay extends protein–ligand identification to membrane proteins, tissues and bacteria” (Nature Structural & Molecular Biology, 2025).

Protein sequences, listed by entry. Tags and fused reporters are not part of them. Lines headed by an entry give the natural chain unless they say otherwise; changes in a name come on top.
UniProt Q8VCC1: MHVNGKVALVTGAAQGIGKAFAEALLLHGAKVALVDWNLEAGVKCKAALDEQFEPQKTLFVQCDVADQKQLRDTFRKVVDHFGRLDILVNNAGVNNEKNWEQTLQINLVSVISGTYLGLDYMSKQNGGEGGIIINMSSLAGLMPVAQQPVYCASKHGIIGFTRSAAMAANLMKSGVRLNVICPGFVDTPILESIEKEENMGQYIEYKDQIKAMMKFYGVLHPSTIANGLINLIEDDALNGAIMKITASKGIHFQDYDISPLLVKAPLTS
UniProt Q8R5F3: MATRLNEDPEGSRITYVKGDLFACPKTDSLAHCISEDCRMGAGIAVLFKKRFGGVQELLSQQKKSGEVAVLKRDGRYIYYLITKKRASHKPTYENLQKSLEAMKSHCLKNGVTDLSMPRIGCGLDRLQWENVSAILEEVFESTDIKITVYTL
UniProt Q8R3S6: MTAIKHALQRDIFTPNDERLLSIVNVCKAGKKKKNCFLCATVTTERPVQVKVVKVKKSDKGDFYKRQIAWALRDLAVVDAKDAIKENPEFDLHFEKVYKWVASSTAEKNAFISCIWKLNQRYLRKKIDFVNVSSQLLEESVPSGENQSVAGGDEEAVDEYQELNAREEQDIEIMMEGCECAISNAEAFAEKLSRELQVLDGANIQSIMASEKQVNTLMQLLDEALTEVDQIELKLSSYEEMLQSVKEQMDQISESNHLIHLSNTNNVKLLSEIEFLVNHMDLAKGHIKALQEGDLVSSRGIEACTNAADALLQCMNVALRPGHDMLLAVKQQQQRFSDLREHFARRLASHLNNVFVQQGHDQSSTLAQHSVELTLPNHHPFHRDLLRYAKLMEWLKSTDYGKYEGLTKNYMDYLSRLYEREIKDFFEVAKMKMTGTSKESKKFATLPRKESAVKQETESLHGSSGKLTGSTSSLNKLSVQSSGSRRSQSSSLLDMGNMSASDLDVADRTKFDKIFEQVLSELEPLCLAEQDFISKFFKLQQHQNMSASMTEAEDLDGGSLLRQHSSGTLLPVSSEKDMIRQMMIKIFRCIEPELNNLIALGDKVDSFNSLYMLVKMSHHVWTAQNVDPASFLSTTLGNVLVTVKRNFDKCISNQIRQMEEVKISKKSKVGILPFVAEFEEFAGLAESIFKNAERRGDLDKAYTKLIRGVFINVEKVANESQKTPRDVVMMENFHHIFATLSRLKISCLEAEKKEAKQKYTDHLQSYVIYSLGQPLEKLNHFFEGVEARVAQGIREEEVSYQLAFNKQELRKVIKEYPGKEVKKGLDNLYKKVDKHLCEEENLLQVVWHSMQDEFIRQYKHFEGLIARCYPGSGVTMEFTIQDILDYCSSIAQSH
UniProt Q8VE88: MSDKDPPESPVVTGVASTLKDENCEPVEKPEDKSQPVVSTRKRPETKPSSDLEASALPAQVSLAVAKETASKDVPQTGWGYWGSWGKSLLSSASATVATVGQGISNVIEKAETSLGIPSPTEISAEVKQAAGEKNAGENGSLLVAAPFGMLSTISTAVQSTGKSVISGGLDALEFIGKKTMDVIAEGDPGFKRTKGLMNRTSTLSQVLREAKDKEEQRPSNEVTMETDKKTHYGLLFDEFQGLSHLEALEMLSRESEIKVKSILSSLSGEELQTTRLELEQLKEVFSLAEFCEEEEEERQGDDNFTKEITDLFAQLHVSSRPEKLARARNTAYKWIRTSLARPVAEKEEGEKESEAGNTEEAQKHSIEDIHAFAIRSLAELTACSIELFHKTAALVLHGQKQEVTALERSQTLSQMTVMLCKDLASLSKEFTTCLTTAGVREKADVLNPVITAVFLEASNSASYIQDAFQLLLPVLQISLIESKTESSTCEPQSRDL
UniProt Q8VCF1: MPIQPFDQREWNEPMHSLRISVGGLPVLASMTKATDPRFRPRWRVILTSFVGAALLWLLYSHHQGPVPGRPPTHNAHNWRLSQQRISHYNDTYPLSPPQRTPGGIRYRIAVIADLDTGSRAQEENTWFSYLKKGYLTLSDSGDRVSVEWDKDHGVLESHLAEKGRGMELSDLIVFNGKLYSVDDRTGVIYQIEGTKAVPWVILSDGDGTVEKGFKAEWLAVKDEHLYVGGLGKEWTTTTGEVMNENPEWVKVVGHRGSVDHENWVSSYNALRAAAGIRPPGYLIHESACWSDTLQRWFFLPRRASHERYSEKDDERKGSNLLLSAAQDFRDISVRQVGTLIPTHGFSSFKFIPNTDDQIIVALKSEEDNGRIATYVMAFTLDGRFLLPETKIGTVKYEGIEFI
UniProt Q8VCE2, whole entry: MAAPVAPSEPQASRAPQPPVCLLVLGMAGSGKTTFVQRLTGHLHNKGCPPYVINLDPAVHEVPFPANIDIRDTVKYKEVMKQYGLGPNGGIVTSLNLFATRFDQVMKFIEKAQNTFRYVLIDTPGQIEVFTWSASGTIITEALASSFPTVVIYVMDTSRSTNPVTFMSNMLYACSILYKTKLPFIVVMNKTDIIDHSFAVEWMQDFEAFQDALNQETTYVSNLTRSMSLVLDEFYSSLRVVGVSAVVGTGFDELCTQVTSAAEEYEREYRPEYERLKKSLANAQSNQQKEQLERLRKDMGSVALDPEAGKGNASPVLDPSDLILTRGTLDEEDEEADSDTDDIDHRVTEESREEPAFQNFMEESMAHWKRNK
UniProt Q8VE04: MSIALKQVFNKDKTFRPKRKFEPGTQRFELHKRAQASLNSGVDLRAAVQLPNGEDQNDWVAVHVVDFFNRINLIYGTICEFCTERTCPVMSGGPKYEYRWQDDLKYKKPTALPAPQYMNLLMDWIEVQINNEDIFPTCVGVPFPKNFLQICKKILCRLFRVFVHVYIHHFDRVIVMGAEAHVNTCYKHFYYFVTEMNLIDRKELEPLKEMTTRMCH
UniProt Q8R4H2: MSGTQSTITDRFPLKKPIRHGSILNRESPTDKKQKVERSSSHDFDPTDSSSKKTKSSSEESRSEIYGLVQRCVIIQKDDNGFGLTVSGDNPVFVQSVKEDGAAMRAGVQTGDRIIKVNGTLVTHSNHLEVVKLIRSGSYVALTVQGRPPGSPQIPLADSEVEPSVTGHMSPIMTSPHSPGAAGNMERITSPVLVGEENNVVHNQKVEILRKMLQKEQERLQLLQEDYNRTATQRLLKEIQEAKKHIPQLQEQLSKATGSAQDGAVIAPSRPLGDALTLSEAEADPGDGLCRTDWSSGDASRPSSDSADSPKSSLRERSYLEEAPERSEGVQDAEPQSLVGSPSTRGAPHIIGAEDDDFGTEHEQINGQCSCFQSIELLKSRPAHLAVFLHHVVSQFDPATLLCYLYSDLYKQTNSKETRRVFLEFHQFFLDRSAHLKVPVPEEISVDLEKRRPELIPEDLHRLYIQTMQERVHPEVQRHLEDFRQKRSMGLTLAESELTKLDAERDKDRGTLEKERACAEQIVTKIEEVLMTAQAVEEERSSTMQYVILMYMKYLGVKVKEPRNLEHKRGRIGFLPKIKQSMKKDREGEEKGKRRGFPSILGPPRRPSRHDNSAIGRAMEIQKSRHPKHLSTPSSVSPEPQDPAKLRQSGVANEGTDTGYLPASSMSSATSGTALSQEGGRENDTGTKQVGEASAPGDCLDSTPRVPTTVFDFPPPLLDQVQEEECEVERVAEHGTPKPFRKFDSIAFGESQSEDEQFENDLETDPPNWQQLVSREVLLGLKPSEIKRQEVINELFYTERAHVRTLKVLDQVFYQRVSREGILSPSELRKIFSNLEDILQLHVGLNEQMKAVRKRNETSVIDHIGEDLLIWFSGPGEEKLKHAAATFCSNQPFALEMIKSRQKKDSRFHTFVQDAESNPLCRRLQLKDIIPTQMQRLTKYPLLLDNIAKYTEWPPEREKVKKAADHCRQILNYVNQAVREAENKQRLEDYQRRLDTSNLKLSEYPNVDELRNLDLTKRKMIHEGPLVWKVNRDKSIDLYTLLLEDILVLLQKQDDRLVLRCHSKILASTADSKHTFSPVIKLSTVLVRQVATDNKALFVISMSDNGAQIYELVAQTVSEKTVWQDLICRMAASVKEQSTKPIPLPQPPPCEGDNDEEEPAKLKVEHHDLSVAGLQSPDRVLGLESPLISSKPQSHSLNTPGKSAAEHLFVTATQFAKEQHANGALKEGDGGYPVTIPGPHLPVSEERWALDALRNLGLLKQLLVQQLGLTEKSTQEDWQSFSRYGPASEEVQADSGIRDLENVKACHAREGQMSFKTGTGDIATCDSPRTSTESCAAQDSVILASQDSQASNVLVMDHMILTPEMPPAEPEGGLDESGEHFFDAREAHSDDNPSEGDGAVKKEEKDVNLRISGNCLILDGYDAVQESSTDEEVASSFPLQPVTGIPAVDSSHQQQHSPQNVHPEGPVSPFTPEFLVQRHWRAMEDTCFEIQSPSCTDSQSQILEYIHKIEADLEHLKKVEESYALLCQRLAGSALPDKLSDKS
UniProt Q8R550, whole entry: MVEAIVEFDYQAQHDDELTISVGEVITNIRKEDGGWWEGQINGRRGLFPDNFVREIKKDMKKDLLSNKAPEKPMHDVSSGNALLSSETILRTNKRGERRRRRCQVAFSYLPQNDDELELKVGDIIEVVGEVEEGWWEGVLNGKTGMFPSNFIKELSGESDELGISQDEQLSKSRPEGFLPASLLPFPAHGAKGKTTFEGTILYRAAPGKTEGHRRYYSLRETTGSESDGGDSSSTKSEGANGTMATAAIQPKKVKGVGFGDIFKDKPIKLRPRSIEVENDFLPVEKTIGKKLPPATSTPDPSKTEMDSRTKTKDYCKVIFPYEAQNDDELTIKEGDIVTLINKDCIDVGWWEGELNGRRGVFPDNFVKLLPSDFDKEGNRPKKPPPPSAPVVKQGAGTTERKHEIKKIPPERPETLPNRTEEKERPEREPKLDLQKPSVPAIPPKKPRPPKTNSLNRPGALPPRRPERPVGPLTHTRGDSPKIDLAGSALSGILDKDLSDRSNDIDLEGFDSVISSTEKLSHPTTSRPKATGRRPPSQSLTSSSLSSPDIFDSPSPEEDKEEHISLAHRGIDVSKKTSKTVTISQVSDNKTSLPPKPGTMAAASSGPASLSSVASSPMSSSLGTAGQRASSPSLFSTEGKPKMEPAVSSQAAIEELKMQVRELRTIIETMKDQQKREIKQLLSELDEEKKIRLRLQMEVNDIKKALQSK
UniProt Q8R3P7: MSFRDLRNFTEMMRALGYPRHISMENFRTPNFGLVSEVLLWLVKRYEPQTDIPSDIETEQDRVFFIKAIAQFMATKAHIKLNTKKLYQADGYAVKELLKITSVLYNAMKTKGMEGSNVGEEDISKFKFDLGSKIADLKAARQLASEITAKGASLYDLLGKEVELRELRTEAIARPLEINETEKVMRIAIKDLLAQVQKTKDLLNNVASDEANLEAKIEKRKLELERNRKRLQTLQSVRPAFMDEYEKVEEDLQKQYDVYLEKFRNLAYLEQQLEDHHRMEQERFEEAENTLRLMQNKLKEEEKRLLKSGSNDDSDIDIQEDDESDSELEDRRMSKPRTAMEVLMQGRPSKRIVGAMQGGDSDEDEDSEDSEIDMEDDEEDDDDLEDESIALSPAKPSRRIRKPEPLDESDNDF
UniProt Q8R370: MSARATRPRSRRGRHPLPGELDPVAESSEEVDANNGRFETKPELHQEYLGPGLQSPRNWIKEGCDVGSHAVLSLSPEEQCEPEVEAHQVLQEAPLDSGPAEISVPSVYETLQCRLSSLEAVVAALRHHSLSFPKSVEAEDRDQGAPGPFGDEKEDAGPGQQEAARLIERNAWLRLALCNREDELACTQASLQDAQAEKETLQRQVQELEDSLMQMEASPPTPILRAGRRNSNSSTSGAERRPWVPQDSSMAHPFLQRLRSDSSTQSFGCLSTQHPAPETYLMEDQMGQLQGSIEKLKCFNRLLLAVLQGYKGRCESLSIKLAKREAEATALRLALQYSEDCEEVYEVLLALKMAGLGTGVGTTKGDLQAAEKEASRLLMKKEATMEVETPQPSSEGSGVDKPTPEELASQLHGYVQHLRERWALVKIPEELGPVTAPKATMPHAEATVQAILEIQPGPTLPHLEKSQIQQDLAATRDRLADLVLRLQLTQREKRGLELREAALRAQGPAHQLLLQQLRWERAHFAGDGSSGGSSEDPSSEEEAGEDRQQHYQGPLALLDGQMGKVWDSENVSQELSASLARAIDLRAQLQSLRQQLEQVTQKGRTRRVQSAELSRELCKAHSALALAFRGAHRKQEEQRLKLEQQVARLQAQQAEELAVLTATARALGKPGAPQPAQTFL
UniProt Q8R4R6: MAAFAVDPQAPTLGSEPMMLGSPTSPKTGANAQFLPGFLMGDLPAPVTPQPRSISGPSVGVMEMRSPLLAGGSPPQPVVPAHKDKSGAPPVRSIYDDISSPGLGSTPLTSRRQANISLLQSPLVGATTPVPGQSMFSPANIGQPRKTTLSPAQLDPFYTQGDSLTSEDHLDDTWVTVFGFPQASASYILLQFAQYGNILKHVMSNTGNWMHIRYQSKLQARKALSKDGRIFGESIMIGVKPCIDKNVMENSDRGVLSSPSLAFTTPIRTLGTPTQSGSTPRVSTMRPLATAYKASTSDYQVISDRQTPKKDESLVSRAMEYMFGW

Some of the results follow. Most entries show no effect beyond the scatter of the controls.

Compound in the test: CN[C@@H]1C[C@H]2O[C@@](C)([C@@H]1OC)n1c3ccccc3c3c4c(c5c6ccccc6n2c5c31)C(=O)NC4 [staurosporine]
Kind of test: log2 fold change of tryptic peptide abundance, ligand vs vehicle (limited proteolysis) (log2 ratio); higher = more trypsin-susceptible (destabilized). Particulars: ligand concentration: 20 uM; sample: mouse liver crude lysate; replicate design: treated separately.
For the target “UniProt Q8VCC1 (peptide sequence: EENMGQYIEYKDQIK, peptide start residue: 197)”, the log2 fold change turned out to be 0.223.
As for “UniProt Q8R2U4 (peptide sequence: LLLPLFR, peptide start residue: 79)”, the figure is -0.45; as for “UniProt Q8R5F3 (peptide sequence: GDLFACPK, peptide start residue: 19)”, -0.404.
As for “UniProt Q8R4T1 (peptide sequence: VKGNPEDSCASEAPGNSPK, peptide start residue: 100)”, the log2 fold change came out at 0.349.
As for “UniProt Q8VCM7 (peptide sequence: KNWIQYK, peptide start residue: 231)”, the log2 fold change was 0.388.
With “UniProt Q8VC26 (peptide sequence: GLHWGLQLLPTPK, peptide start residue: 18)”, the log2 fold change was found to be 0.459.
Regarding “UniProt Q8R3N1 (peptide sequence: HTSADDLNDGFILDKDDRR, peptide start residue: 309)”, the log2 fold change is -0.15.
As for “UniProt Q8VCP8 (peptide sequence: TDNGVLYKR, peptide start residue: 97)”, the figure is 0.227.
“UniProt Q8R2T8 (peptide sequence: SNVSVHPDKLK, peptide start residue: 271)”: the log2 fold change came out at 1.36.
As for “UniProt Q8R3Q2 (peptide sequence: LLDFLCR, peptide start residue: 44)”, the figure is -0.242.
Under “UniProt Q8R3S6 (peptide sequence: QKYTDHLQSYVIYSLGQPLEK, peptide start residue: 757)” stands 0.529.
Under “UniProt Q8R4V1 (peptide sequence: STVGTTKPPAESVYTSLQR, peptide start residue: 202)” stands 0.0753.
For “UniProt Q8VE88 (peptide sequence: KTMDVIAEGDPGFKR, peptide start residue: 179)”, the log2 fold change was 0.204.
With “UniProt Q8VCF1 (peptide sequence: PIQPFDQR, peptide start residue: 2)”, the log2 fold change was -0.053.
Under “UniProt Q8VD58 (peptide sequence: LFESSEHINDTSNLK, peptide start residue: 292)” stands -0.341; under “UniProt Q8VCE2 (peptide sequence: KDMGSVALDPEAGK, peptide start residue: 297)”, 0.557.
As for “UniProt Q8VC34 (peptide sequence: ESTQISSPGPLCDRFNTSAISEHK, peptide start residue: 295)”, the figure is -0.31; as for “UniProt Q8VE04 (peptide sequence: ELEPLKEMTTR, peptide start residue: 203)”, -0.155; as for “UniProt Q8VD76 (peptide sequence: ISLPPVLK, peptide start residue: 292)”, -0.19.
Under “UniProt Q8R4H2 (peptide sequence: HTFSPVIK, peptide start residue: 1074)” stands 0.445; under “UniProt Q8VE95 (peptide sequence: TREYFYYVDHQGQLFLDDSK, peptide start residue: 42)”, 0.519.
For the target “UniProt Q8R409 (peptide sequence: EYLELEKCLSR, peptide start residue: 287)”, the log2 fold change was -0.505.
Under “UniProt Q8VC65 (peptide sequence: KLHLLSRPQDGEAE, peptide start residue: 249)” stands 0.103; under “UniProt Q8R550 (peptide sequence: APEKPMHDVSSGNALLSSETILR, peptide start residue: 69)”, -0.413.
As for “UniProt Q8VCA6 (peptide sequence: WANGLHDEKPLSVPR, peptide start residue: 64)”, the figure is -0.117.
Under “UniProt Q8R3P7 (peptide sequence: TAMEVLMQGRPSKR, peptide start residue: 338)” stands 0.283; under “UniProt Q8VD65 (peptide sequence: TKQEPDEKR, peptide start residue: 836)”, 0.585; under “UniProt Q8R370 (peptide sequence: EAEATALR, peptide start residue: 325)”, -0.315.
For the target “UniProt Q8R4R6 (peptide sequence: SPLLAGGSPPQPVVPAHKDK, peptide start residue: 66)”, the log2 fold change is -0.144.
Under “UniProt Q8VCF0 (peptide sequence: RPGWVEVFIR, peptide start residue: 65)” stands 0.456.
